In paper PMC7758050 one finds binding data, which are given here for two molecules.

Protein sequences, listed by entry. Tags and fused reporters are not part of them.
UniProt Q9UM11: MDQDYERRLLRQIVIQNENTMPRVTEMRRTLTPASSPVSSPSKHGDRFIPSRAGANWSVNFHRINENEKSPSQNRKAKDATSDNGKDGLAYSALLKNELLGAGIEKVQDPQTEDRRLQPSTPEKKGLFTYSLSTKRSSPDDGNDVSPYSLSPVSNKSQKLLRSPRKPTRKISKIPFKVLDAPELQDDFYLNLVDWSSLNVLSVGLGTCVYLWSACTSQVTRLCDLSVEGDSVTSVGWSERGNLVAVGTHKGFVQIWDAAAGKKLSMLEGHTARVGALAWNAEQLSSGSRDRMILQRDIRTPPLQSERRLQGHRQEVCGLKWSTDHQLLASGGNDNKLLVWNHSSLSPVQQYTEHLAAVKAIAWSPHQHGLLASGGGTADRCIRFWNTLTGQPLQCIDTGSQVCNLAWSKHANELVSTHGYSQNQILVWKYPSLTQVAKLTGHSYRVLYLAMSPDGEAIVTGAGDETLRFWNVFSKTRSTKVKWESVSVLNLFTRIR

For experiment [1], the target named is Endogenous Cdh1 (human (endogenous in HeLa S3)) (UniProt Q9UM11). As to the kind of experiment: co-IP; endogenous proteins; HeLa S3 synchronized by nocodazole block, collected 0 h and 1 h after release; phosphate lysis buffer; α-Cdh1 (clone DCS-266) or control mouse IgG overnight at 4°C, Protein G magnetic beads; immunoblot. On the technique in general: In western blotting, separated proteins are transferred to a membrane and probed.

The next experiment has as its target HA-Cdh1 (UniProt Q9UM11). As to the kind of experiment: co-IP; transiently transfected HEK-293T treated with proteasome inhibitor (MG-132) before harvest; NETN lysis; IP 2-4 h at 4°C with M2- or Myc-antibody beads (α-HA IP in Fig 4D); washes in NETN with additional 1% Triton X-100; immunoblot.

Results are given in words; binding and its absence hold for the method and conditions named. Binding seen in cells or lysates may run through a third protein. Some binding calls cover weakened binding; strength is not graded here. For some assays here: Tags and fused reporters may be left off the sequences shown.

B1: Endogenous UHRF1 (ubiquitin-like with PHD and RING finger domains 1) (protein, UniProt Q96T88 1-793)
chain: MWIQVRTMDGRQTHTVDSLSRLTKVEELRRKIQELFHVEPGLQRLFYRGKQMEDGHTLFDYEVRLNDTIQLLVRQSLVLPHSTKERDSELSDTDSGCCLGQSESDKSSTHGEAAAETDSRPADEDMWDETELGLYKVNEYVDARDTNMGAWFEAQVVRVTRKAPSRDEPCSSTSRPALEEDVIYHVKYDDYPENGVVQMNSRDVRARARTIIKWQDLEVGQVVMLNYNPDNPKERGFWYDAEISRKRETRTARELYANVVLGDDSLNDCRIIFVDEVFKIERPGEGSPMVDNPMRRKSGPSCKHCKDDVNRLCRVCACHLCGGRQDPDKQLMCDECDMAFHIYCLDPPLSSVPSEDEWYCPECRNDASEVVLAGERLRESKKKAKMASATSSSQRDWGKGMACVGRTKECTIVPSNHYGPIPGIPVGTMWRFRVQVSESGVHRPHVAGIHGRSNDGAYSLVLAGGYEDDVDHGNFFTYTGSGGRDLSGNKRTAEQSCDQKLTNTNRALALNCFAPINDQEGAEAKDWRSGKPVRVVRNVKGGKNSKYAPAEGNRYDGIYKVVKYWPEKGKSGFLVWRYLLRRDDDEPGPWTKEGKDRIKKLGLTMQYPEGYLEALANREREKENSKREEEEQQEGGFASPRTGKGKWKRKSAGGGPSRAGSPRRTSKKTKVEPYSLTAQQSSLIREDKSNAKLWNEVLASLKDRPASGSPFQLFLSKVEETFQCICCQELVFRPITTVCQHNVCKDCLDRSFRAQVFSCPACRYDLGRSYAMQVNQPLQTVLNQLFPGYGNGR
As to B1, the binding entry in experiment [1] was “binds”.

B2: Myc-UHRF1^WT (protein, UniProt Q96T88 1-793)
chain: MWIQVRTMDGRQTHTVDSLSRLTKVEELRRKIQELFHVEPGLQRLFYRGKQMEDGHTLFDYEVRLNDTIQLLVRQSLVLPHSTKERDSELSDTDSGCCLGQSESDKSSTHGEAAAETDSRPADEDMWDETELGLYKVNEYVDARDTNMGAWFEAQVVRVTRKAPSRDEPCSSTSRPALEEDVIYHVKYDDYPENGVVQMNSRDVRARARTIIKWQDLEVGQVVMLNYNPDNPKERGFWYDAEISRKRETRTARELYANVVLGDDSLNDCRIIFVDEVFKIERPGEGSPMVDNPMRRKSGPSCKHCKDDVNRLCRVCACHLCGGRQDPDKQLMCDECDMAFHIYCLDPPLSSVPSEDEWYCPECRNDASEVVLAGERLRESKKKAKMASATSSSQRDWGKGMACVGRTKECTIVPSNHYGPIPGIPVGTMWRFRVQVSESGVHRPHVAGIHGRSNDGAYSLVLAGGYEDDVDHGNFFTYTGSGGRDLSGNKRTAEQSCDQKLTNTNRALALNCFAPINDQEGAEAKDWRSGKPVRVVRNVKGGKNSKYAPAEGNRYDGIYKVVKYWPEKGKSGFLVWRYLLRRDDDEPGPWTKEGKDRIKKLGLTMQYPEGYLEALANREREKENSKREEEEQQEGGFASPRTGKGKWKRKSAGGGPSRAGSPRRTSKKTKVEPYSLTAQQSSLIREDKSNAKLWNEVLASLKDRPASGSPFQLFLSKVEETFQCICCQELVFRPITTVCQHNVCKDCLDRSFRAQVFSCPACRYDLGRSYAMQVNQPLQTVLNQLFPGYGNGR
As to B2, the binding result with HA-Cdh1 is given as “binds”.
